Measured values taken from patent US20220381784A1, “SYSTEMS COMPRISING SUBSTRATES AND METHODS OF USING THE SAME FOR DETECTION OF PANCREATIC CANCERS” (THE REGENTS OF THE UNIVERSITY OF CALIFORNIA, priority 2019, published 2022).
At least one read-out could not be matched to a standard name with certainty.

Experiments:
[1] = biological target: T1, Cathepsin E (Homo sapiens, UniProt P14091); conditions: target protease cathepsin E; Pubmed ID 20600629; cited from earlier work
T1 sequence (P14091 54-396): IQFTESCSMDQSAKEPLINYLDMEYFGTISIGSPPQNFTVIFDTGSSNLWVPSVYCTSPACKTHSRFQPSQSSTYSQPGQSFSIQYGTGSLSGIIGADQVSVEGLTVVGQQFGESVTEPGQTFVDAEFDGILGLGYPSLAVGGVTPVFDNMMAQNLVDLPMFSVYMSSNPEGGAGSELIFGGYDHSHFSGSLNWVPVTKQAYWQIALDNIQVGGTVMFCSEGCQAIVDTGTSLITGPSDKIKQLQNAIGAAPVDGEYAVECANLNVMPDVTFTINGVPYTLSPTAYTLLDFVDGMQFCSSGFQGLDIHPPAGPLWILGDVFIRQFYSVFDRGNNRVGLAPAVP

[2] = biological target: T2, Gastricsin (Homo sapiens, UniProt P20142); assay: Cleavage of peptide substrates by gastricsin (Table 1); type: biochemical; conditions: target protease gastricsin
T2 sequence (P20142 60-388): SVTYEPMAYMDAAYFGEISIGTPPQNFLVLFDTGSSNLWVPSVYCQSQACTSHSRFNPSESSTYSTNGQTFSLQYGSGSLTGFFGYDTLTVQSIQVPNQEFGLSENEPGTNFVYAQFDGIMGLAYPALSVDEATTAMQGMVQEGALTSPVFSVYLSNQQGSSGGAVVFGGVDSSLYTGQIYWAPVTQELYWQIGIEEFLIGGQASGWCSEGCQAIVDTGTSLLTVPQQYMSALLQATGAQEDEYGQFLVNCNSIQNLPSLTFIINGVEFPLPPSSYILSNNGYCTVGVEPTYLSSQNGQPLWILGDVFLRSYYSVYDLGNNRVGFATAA

Substance	kcat/Km [1]	kcat/Km [2]
AGFSLPA (Substrate) [AGFSL | PA, cathepsin E substrate peptide with literature kcat/Km (Pubmed ID 20600629)]	1.7 x 10^7 M-1/s-1	–
DEGWALQH (Substrate) [DEGW | ALQH, gastricsin substrate peptide,; = site of cleavage]	–	4.8 x 10^5 M-1/s-1
